This passage reports binding results from PMC5974179.

Protein sequences, listed by entry. Tags and fused reporters are not part of them.
UniProt P08670: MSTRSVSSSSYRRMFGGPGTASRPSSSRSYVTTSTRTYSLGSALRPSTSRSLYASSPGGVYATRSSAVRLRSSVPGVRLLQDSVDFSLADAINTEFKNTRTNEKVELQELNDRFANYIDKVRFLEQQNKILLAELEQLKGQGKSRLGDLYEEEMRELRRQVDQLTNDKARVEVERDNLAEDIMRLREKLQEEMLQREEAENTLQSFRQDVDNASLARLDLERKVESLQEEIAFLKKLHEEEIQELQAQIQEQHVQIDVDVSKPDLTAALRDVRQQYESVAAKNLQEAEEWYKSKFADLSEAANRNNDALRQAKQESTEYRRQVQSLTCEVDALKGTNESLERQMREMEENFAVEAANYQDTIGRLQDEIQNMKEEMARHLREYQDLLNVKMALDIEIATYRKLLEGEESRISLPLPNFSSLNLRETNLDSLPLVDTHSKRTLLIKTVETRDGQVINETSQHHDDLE

These are yes or no findings as the source states them, for the method shown. Binding seen in cells or lysates may run through a third protein. These calls come from enrichment with a bait or labelling near it, and not all partners need be listed.

The test addresses T1, Follistatin-like protein 1 (FSTL1) (human (endogenous in SW480)) (UniProt Q12841).
T1 sequence: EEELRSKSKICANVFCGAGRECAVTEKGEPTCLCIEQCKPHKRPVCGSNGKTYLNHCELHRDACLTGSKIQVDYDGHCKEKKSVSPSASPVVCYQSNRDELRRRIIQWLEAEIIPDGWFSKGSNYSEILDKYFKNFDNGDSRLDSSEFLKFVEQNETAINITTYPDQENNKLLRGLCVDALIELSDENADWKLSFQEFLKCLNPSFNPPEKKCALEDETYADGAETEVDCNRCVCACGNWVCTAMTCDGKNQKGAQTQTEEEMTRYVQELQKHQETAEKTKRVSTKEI
The test can be described thus: affinity purification with mass spectrometry; whole-cell lysate of SW480 cells immunoprecipitated with FSTL1 antibody; silver stain; the differential band analysed by mass spectrometry.

For VIM (from UniProt P08670 1-466), the binding entry is “binds”.
